Hit rate of the full screen: of about 360,000 compounds, about 7,500 (2.1%) were called active. Inconclusive results, whose numbers are uncertain, are shown with a selection of clear calls. Calls follow the shape of the dose curve; as a rule, active = well fitted inhibition curve with a large enough effect; inconclusive = small, poorly fitted or top-dose-only effect, or effect the other way; inactive = flat fitted curve, though single readings scatter. Potencies of inconclusive entries are doubtful fits and often do not repeat.
assay: Nrf2 qHTS screen for inhibitors; conditions: A549 ARE-Fluc reporter, luciferase luminescence, 18-24 h; activity change, negative = inhibition: at 46 µM (top of the series); also: nearly all actives have a fitted effect of over 60% in size
Summary of the method: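 Concentration-response testing used A549 ARE_Fluc cells at 5000 cells/well. Following an 18-24 h compound incubation, viability was read by fluorescence (Ex 405/Em 525) and luciferase output by luminescence.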
% is scaled to controls: 0 for no effect and ±100 for the full control effect; potency is read from the fitted curve at half-maximal effect.

SMILES | activity change, negative = inhibition | Potency
CC(C)C(C(=O)OCC(=O)c1cccc([N+](=O)[O-])c1)N1C(=O)[C@@H]2[C@H]3CC[C@H](C3)[C@@H]2C1=O (stereo not given in full) | inactive: -21.7% | –
Cc1c(C(=O)NCc2cccnc2)oc2ccc(S(=O)(=O)N3CCCCC3)cc12 | – | inconclusive: 23.1 µM [falling, single point]
COc1cccc(CNC(=O)C2=C(C)C(=O)OC23CCN(C(C)=O)CC3)c1OC | – | inconclusive: 16.4 µM [activator, partial curve, poor fit]
Cc1ccc(S(=O)(=O)N2CCN(c3ncnc4sccc34)CC2)cc1 | – | active: 7.31 µM
C/C(Cl)=C\Cn1c(O)c(N=NC(N)=S)c2ccccc21 | – | inconclusive: 16.4 µM [falling, single point]
O=c1cc(-c2cccc(Cl)c2)oc2cccc(O)c12 | – | inconclusive: 2.59 µM [activator, partial curve, poor fit]
Cc1ccc2c(c1)C(=O)CC(O)(C(F)F)O2 (stereo not given) | – | inconclusive: 20.6 µM [activator, single point]
CC1CCC(NC(=O)c2ccc(N3CCCC3=O)cc2)CC1 (stereo not given) | – | inconclusive: 16.4 µM [activator, single point]
CCCCn1cnc2c(SCCc3ccccc3)nc(N)nc21 | inactive: -9.56% | –
CCc1ccc(NC(=O)CN(C)S(=O)(=O)c2ccc3[nH]c(=O)oc3c2)cc1 | – | inconclusive: 20.6 µM [activator, single point]
COc1cc(C2CC(=O)Nc3ccccc3S2)cc(OC)c1OC (stereo not given) | inactive: -21.2% | –
CN(C)C(=O)COc1ccc2ccc(=O)oc2c1 | inactive: 8.6% | –
Cc1ccc(NC(=S)Nc2ccc(Cl)c(Cl)c2)c(OC(F)F)c1 | – | inconclusive: 23.1 µM [falling, single point]
CC(=O)NCCNS(=O)(=O)c1ccc(C)c([N+](=O)[O-])c1 | – | inconclusive: 0.82 µM [falling, partial curve, poor fit]
Cc1ncc(CN2CCC(CO)(CCc3ccccc3)CC2)s1 | inactive: 10.4% | –
O=C(NNC(=O)c1ccc(NC(=O)c2ccccc2)cc1)c1ccc(F)cc1 | inactive: -8.54% | –
COc1ccc(OC)c(CNC(=O)C2CCCN(c3ncnc4onc(-c5ccc(F)cc5)c34)C2)c1 (stereo not given) | – | inconclusive: 0.116 µM [activator, full curve, poor fit]
CC(=O)Nc1cccc(NC(=O)CSc2ccc(-c3ccco3)nn2)c1 | inactive: 17.4% | –
CC(/C=C/c1ccccc1)=N\NC(=O)CSc1ccccn1 | – | inconclusive: 4.61 µM [activator, single point]
CC(CC(=O)c1cccs1)CC(=O)c1cccs1 | – | inconclusive: 3.66 µM [activator, full curve, poor fit]
Cc1nnc2c3ccccc3c(-c3cccc4ccccc34)nn12 | – | inconclusive: 1.84 µM [falling, partial curve, poor fit]
COc1nccnc1NS(=O)(=O)c1ccc(NC(=S)NC(=O)/C=C/c2ccccc2)cc1 | – | inconclusive: 18.4 µM [falling, partial curve, poor fit]

SMILES | activity change, negative = inhibition | Potency
COc1ccc(NS(=O)(=O)c2ccc(S(=O)(=O)N3CCOCC3)cc2)cc1 | – | inconclusive: 25.9 µM [falling, partial curve, poor fit]
CCOC(=O)C1CCN(S(=O)(=O)c2ccc3c(c2)NC(=O)CS3)CC1 | – | inconclusive: 5.8 µM [activator, partial curve, poor fit]
NC(=O)c1ccccc1-c1nc(-c2ccccc2)no1 | – | inconclusive: 13 µM [activator, partial curve, poor fit]
O=C(/C=C/c1ccc(Cl)cc1)Nc1ccc(N2CCOCC2)cc1 | – | inconclusive: 3.66 µM [falling, partial curve, poor fit]
O=C(COCc1cc(-c2cccs2)on1)N1CCN(c2ccccc2)CC1 | – | inconclusive: 23.1 µM [falling, single point]
CCC1Oc2ccc(C)cc2N(CC(=O)N(Cc2ccc3c(c2)OCO3)CC2CCCO2)C1=O (stereo not given) | – | inconclusive: 18.4 µM [falling, partial curve, poor fit]
C=CCn1cccc(/C=C/C(=O)c2ccc(C(C)(C)C)cc2)c1=S | – | inconclusive: 20.6 µM [falling, single point]
COc1cc(/C=C(\C#N)C(=O)Nc2ccc3ccccc3c2)c([N+](=O)[O-])cc1OC | – | inconclusive: 23.1 µM [falling, single point]
CC(=O)OC[C@H]1O[C@@H](Sc2cccc3cccnc23)[C@H](OC(C)=O)[C@@H](OC(C)=O)[C@H]1OC(C)=O | inactive: 0% | –
COC(=O)c1cccc(Cn2c(Cl)c(/C=N/NC(=O)c3ccccc3Cl)sc2=O)c1 | – | inconclusive: 29.1 µM [falling, single point]
COc1ccc2oc(C(=O)OCC(=O)N(C)c3ccccc3)c(C)c2c1 | inactive: 6.42% | –
CSc1cccc(NC(=O)c2cccc3cccnc23)c1 | – | inconclusive: 29.1 µM [activator, single point]
Brc1ccc(N/N=C(/N=Nc2nn[nH]n2)c2ccccc2)cc1 | – | active: 10.3 µM
COc1ccccc1NC(=O)CSc1nnc(CC(=O)Nc2ccccc2F)n1C | – | inconclusive: 0.461 µM [activator, full curve]
C=CCNC(=O)c1ccccc1NC(=O)c1ccc(Cl)c(S(=O)(=O)Nc2ccccc2)c1 | – | inconclusive: 18.4 µM [falling, single point]
NC(=O)C1CCCN(C(=O)c2ccc3nc(Cc4cccc(Cl)c4)oc3c2)C1 (stereo not given) | – | inconclusive: 18.4 µM [falling, partial curve]
Cc1ccc(S(=O)(=O)CCC(=O)OCc2nnc(-c3ccccc3)o2)cc1 | inactive: 19.1% | –
N#C/C(C(=O)N1CCCCC1)=C1/N=C(NC(=O)c2ccc(F)cc2)c2ccccc21 | inactive: 12.1% | –
O=C(c1ccccn1)N1CCN(c2ccc(C(F)(F)F)cn2)CC1 | – | inconclusive: 20.6 µM [falling, single point]
CN(C)c1ccc(P(=O)(Nc2cccc(C(F)(F)F)c2)N2CCOCC2)c(NC(=O)c2cccs2)c1 (stereo not given) | – | inconclusive: 20.6 µM [activator, partial curve, poor fit]
CCC(=O)c1ccc(N2CCCC2)c(F)c1 | – | inconclusive: 29.1 µM [activator, single point]
CCCN(CCC)S(=O)(=O)c1ccc(NS(=O)(=O)c2ccc(F)cc2)cc1 | – | inconclusive: 20.6 µM [falling, partial curve, poor fit]

SMILES | activity change, negative = inhibition | Potency
Cc1ccccc1CN1C(=O)c2ccccc2Sc2ccc(C(=O)NCCN3CCOCC3)cc21 | – | inconclusive: 10.3 µM [falling, partial curve, poor fit]
Cc1ccc(NS(=O)(=O)c2ccc(NC(=O)C3CC3)cc2)c(C)c1 | – | inconclusive: 20.6 µM [falling, partial curve]
CC/C(=C\c1oc2cc3ccccc3cc2[n+]1CC)Nc1ccccc1 | – | inconclusive: 29.1 µM [falling, single point]
CC1CCCC(C)N1C(=O)CSc1nnnn1C1CCCC1 (stereo not given) | – | inconclusive: 29.1 µM [activator, single point]
Cc1ccc(C2(C)NC(=O)N(CC(=O)NNC(=O)c3ccccc3F)C2=O)cc1 (stereo not given) | – | inconclusive: 20.6 µM [activator, partial curve, poor fit]
O=C(Nc1nc(-c2ccc3c(c2)OCCO3)cs1)C1CC(=O)N(c2ccc3c(c2)OCCO3)C1 (stereo not given) | – | inconclusive: 29.1 µM [falling, single point]
CCOC(=O)c1sc(NC(=O)CN2C(=O)NC3(CC(C)CC(C)(C)C3)C2=O)cc1C (stereo not given) | – | inconclusive: 25.9 µM [falling, single point]
O=C(CCC(=O)Nc1ccccc1)N/N=C/c1ccccc1F | – | inconclusive: 5.8 µM [activator, partial curve, poor fit]
CN1CCN(c2ccc(Nc3ccnc4cc(Cl)ccc34)cc2)CC1 | – | inconclusive: 32.6 µM [falling, single point]
CCc1cc(SC#N)cc(CC)c1NC(=O)CCl | – | inconclusive: 29.1 µM [falling, single point]
C/C(=N/NC(=O)c1cc(C)[nH]n1)c1ccncc1 | – | inconclusive: 11.6 µM [activator, partial curve]
CC(C)NC(=O)c1ccc(Cn2c(SCc3ccc(F)cc3)nc3cccnc32)cc1 | – | inconclusive: 29.1 µM [activator, single point]
COc1ccc(NS(=O)(=O)c2ccc3nc(COc4cccc5ccccc45)[nH]c3c2)cc1 | – | inconclusive: 29.1 µM [falling, single point]
O=C(CCn1c(=O)c2cccn2c2cccnc21)N1CCN(c2cccc(C(F)(F)F)c2)CC1 | – | inconclusive: 23.1 µM [falling, single point]
O=C(Nc1c(C(=O)N2CCN(c3ccccc3F)CC2)oc2ccccc12)c1cccc(F)c1 | inactive: -17.3% | –
COc1ccc(NS(=O)(=O)c2ccc(-c3coc(C)n3)cc2)cc1 | – | active: 16.4 µM
CCOC(=O)C1CCN(C(=O)COC(=O)c2ccc([N+](=O)[O-])o2)CC1 | inactive: -13.4% | –
Cc1ccc2nc(SCC3CCCCO3)[nH]c2c1 (stereo not given) | – | inconclusive: 4.61 µM [activator, full curve]
COc1ccc(NC(=S)N(CCCOC(C)C)C2CCN(C(C)=O)CC2)cc1Cl | – | inconclusive: 29.1 µM [falling, partial curve, poor fit]
Nc1ccc2c(c1)Oc1ccccc1C=C2 | – | inconclusive: 25.9 µM [activator, single point]
Cc1ccc(-c2nnc(CCC(=O)NCC3C4CC5CC(C4)CC3C5)o2)s1 (stereo not given) | – | inconclusive: 13 µM [activator, partial curve]

Compounds listed so far containing a CF3 group (three):
SMILES | activity change, negative = inhibition | Potency
O=C(c1ccccn1)N1CCN(c2ccc(C(F)(F)F)cn2)CC1 | – | inconclusive: 20.6 µM [falling, single point]
CN(C)c1ccc(P(=O)(Nc2cccc(C(F)(F)F)c2)N2CCOCC2)c(NC(=O)c2cccs2)c1 (stereo not given) | – | inconclusive: 20.6 µM [activator, partial curve, poor fit]
O=C(CCn1c(=O)c2cccn2c2cccnc21)N1CCN(c2cccc(C(F)(F)F)c2)CC1 | – | inconclusive: 23.1 µM [falling, single point]

Reference: PubChem BioAssay AID504444 (National Center for Advancing Translational Sciences (NCATS), 2011)
